These are yes or no findings as the source states them, for the method shown. In cells and extracts the contact can be indirect. Here binding means that the protein was enriched with, or labelled near, the bait; the list need not be complete.
Biological target: CPNE7 (copine7) (human) (UniProt Q9UBL6)
Assay: affinity purification with mass spectrometry; IP from SW480 cell lysate (RIPA buffer with PMSF), 2 ug antibody overnight at 4°C, Protein A/G beads; SDS-PAGE, silver staining, differential bands analysed by mass spectrometry

Sequences of proteins named here, by UniProt entry; tags and fusion partners are left off.
UniProt Q9UBL6: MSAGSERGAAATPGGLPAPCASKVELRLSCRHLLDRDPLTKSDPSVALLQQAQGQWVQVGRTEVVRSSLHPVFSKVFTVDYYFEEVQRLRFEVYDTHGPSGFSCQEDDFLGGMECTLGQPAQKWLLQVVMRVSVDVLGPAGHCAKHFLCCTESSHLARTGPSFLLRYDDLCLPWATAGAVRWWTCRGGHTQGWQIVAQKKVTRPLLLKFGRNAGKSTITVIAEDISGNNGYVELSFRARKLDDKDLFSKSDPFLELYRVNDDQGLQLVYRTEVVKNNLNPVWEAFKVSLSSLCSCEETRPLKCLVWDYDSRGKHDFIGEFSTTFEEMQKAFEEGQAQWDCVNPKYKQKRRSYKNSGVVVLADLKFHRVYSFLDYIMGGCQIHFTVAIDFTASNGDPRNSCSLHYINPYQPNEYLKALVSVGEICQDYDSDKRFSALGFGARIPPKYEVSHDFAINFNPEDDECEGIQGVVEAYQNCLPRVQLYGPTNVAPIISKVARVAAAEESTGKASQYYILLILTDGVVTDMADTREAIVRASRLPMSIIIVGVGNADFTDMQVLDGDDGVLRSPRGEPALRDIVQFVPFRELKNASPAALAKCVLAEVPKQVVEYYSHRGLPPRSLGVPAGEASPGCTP

binding: binds
B1: NONO (p54/nrb) (protein, UniProt Q15233 1-471)
chain: MQSNKTFNLEKQNHTPRKHHQHHHQQQHHQQQQQQPPPPPIPANGQQASSQNEGLTIDLKNFRKPGEKTFTQRSRLFVGNLPPDITEEEMRKLFEKYGKAGEVFIHKDKGFGFIRLETRTLAEIAKVELDNMPLRGKQLRVRFACHSASLTVRNLPQYVSNELLEEAFSVFGQVERAVVIVDDRGRPSGKGIVEFSGKPAARKALDRCSEGSFLLTTFPRPVTVEPMDQLDDEEGLPEKLVIKNQQFHKEREQPPRFAQPGSFEYEYAMRWKALIEMEKQQQDQVDRNIKEAREKLEMEMEAARHEHQVMLMRQDLMRRQEELRRMEELHNQEVQKRKQLELRQEEERRRREEEMRRQQEEMMRRQQEGFKGTFPDAREQEIRMGQMAMGGAMGINNRGAMPPAPVPAGTPAPPGPATMMPDGTLGLTPPTTERFGQAATMEGIGAIGGTPPAFNRAAPGAEFAPNKRRRY
